Experimental data: PubChem BioAssay AID1159584 (Peter MacCallum Cancer Centre, 2016)
Test: 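Genes whose loss is lethal only together with E-cadherin loss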 (primary screen). Cells: human MCF10A breast epithelial cells, parental and CDH1-null. Reagent: siRNA against human genes. Read-out: 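ATP luminescence (CellTiter-Glo) viability per line relative to mean mock wells over all plates, and the ratio of CDH1-null to parental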. Direction: CDH1-null / parental viability ratio: higher = CDH1-null cells survive relatively better than parental.
Shown is an unselected part of about 18,000 deposited reagents. Reagents against one gene are numbered here. Not all columns of the deposit are shown. Not given: the amount of reagent, the time to read-out.

Depletion of MTRF1L resulted in: CDH1-null / parental viability ratio 1.14.
Silencing of NAA15 resulted in: CDH1-null / parental viability ratio 0.87.
ATF5 showed CDH1-null / parental viability ratio 0.81.
After knock-down of CUL1, the record shows CDH1-null / parental viability ratio 1.22.
Against H3C15, the values are CDH1-null / parental viability ratio 1.14.
Silencing of BLTP2 resulted in: CDH1-null / parental viability ratio 1.12.
With knock-down of ZNF493 the results were CDH1-null / parental viability ratio 0.81.
INSC gave CDH1-null / parental viability ratio 0.88.
Silencing of GUCA1B resulted in: CDH1-null / parental viability ratio 0.83.
Against DONSON, the entry reads CDH1-null / parental viability ratio 1.21.
For IKBKB, the entry reads CDH1-null / parental viability ratio 0.81.
Silencing of ADAT3 resulted in: CDH1-null / parental viability ratio 0.84.
With knock-down of DCDC1 #1, the screen gave CDH1-null / parental viability ratio 1.06.
For DCDC1 #2, the values are CDH1-null / parental viability ratio 1.09.
With knock-down of AKR1C3, the record shows CDH1-null / parental viability ratio 1.02.
ZNF311 showed CDH1-null / parental viability ratio 1.1.
Against LOC284009, the values are CDH1-null / parental viability ratio 1.09.
After knock-down of NBPF7P, the record shows CDH1-null / parental viability ratio 1.13.
For FAM228A the deposit lists CDH1-null / parental viability ratio 1.05.
DSG1 showed CDH1-null / parental viability ratio 1.02.
With knock-down of LIG1, the record shows CDH1-null / parental viability ratio 1.08.
Depletion of SIGLEC15 gave: CDH1-null / parental viability ratio 1.06.
Depletion of CXCR1 came out at: CDH1-null / parental viability ratio 0.81.
For TGM2, the values are CDH1-null / parental viability ratio 0.98.
Against IRS1, the entry reads CDH1-null / parental viability ratio 0.84.
Against TXN, the values are CDH1-null / parental viability ratio 0.85.
Silencing of ZKSCAN2 resulted in: CDH1-null / parental viability ratio 0.7.
With knock-down of RGN, the screen gave CDH1-null / parental viability ratio 0.78.
After knock-down of LMF1, the screen gave CDH1-null / parental viability ratio 1.25.
Against TCTN2, the entry reads CDH1-null / parental viability ratio 0.88.
CDC7 scored CDH1-null / parental viability ratio 0.91.
Silencing of LRRC17 resulted in: CDH1-null / parental viability ratio 1.12.
Against PSD the deposit lists CDH1-null / parental viability ratio 0.91.
SUPT20H showed CDH1-null / parental viability ratio 1.19.
For LRRN3, the values are CDH1-null / parental viability ratio 1.17.

Records above whose target name starts with L or l (5):
LOC284009 — CDH1-null / parental viability ratio = 1.09
LIG1 — CDH1-null / parental viability ratio = 1.08
LMF1 — CDH1-null / parental viability ratio = 1.25
LRRC17 — CDH1-null / parental viability ratio = 1.12
LRRN3 — CDH1-null / parental viability ratio = 1.17
